The supplement of paper PMC10331698
± gives the standard deviation of the averaged measurements. Small differences around the control level are noise.

Tests used:
Assay in all cases: level (log10 ratio to DMSO vehicle control); higher = higher biomarker level / cell amount than vehicle control
[1] = compound: O=S(=O)(O)C(F)(F)C(F)(F)C(F)(F)C(F)(F)C(F)(F)C(F)(F)C(F)(F)C(F)(F)F [Perfluorooctanesulfonic acid]; details: 2200 nM; in DMSO
Experimental: (§1)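 BioMAP Diversity Plus panel of 12 human primary cell co-culture systems (3C, 4H, LPS, SAg, BT, BF4T, BE3C, CASM3C, HDF3CGF, KF3CT, MyoF, Mphg). Compounds were added 1 h before stimulation and left for 24 h (MyoF 48 h; BT 72 h for soluble read-outs or 6 d for IgG). Biomarkers were read by ELISA, cytotoxicity by SRB, PBMC viability and proliferation by Alamar Blue. Each well value was divided by the mean of 8 DMSO control wells on the same plate and log10 transformed; duplicate blinded samples were tested at 4 concentrations.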

[2] = compound: C=C(C)C(=O)OCC(F)(F)C(F)(F)C(F)(F)C(F)(F)C(F)(F)C(F)(F)C(F)(F)F; details: in DMSO
Experimental: as §1

[3] = compound: O=P(O)(O)CCC(F)(F)C(F)(F)C(F)(F)C(F)(F)C(F)(F)C(F)(F)F [2-(Perfluorohexyl)ethylphosphonic acid]; details: 2200 nM; in DMSO
Experimental: as §1

[4] = compound: FC(F)(F)C(F)(F)C(F)(F)CC1CO1 [1H,1H-Heptafluorobutyl epoxide]; details: 2200 nM; in DMSO
Experimental: as §1

[5] = compound: O=S(=O)(OCC(F)(F)F)C(F)(F)C(F)(F)C(F)(F)C(F)(F)F [2,2,2-Trifluoroethyl perfluorobutanesulfonate]; details: 2200 nM; in DMSO
Experimental: as §1

[6] = compound: COC(=O)C(F)(F)C(F)(F)OC(F)(C(F)(F)F)C(F)(F)OC(F)=C(F)F [Methyl perfluoro(3-(1-ethenyloxypropan-2-yloxy)propanoate)]; details: in DMSO
Experimental: as §1

[7] = compound: CO[Si](C)(CCC(F)(F)C(F)(F)C(F)(F)C(F)(F)C(F)(F)C(F)(F)F)OC [Dimethoxymethyl((perfluorohexyl)ethyl)silane]; details: in DMSO
Experimental: as §1

[8] = compound: C=CC(=O)OCC(F)(F)C(F)(F)C(F)(F)C(F)(F)C(F)(F)C(F)(F)C(F)(F)F [1H,1H-Perfluorooctyl acrylate]; details: 2200 nM; in DMSO
Experimental: as §1

[9] = compound: C=CC(F)(F)C(F)(F)C(F)(F)C(F)(F)C(F)(F)C(F)(F)C(F)(F)C(F)(F)C=C [1,8-Divinylperfluorooctane]; details: in DMSO
Experimental: as §1

[10] = compound: OCC(F)(F)C(F)(F)C(F)(F)C(F)(F)C(F)(F)C(F)F [1H,1H,7H-Dodecafluoro-1-heptanol]; details: 2200 nM; in DMSO
Experimental: as §1

[11] = compound: NS(=O)(=O)C(F)(F)C(F)(F)C(F)(F)C(F)(F)C(F)(F)C(F)(F)C(F)(F)C(F)(F)F [Perfluorooctanesulfonamide]; details: in DMSO
Experimental: as §1

[12] = compound: O=S(=O)(F)C(F)(F)C(F)(F)C(F)(F)C(F)(F)C(F)(F)C(F)(F)C(F)(F)C(F)(F)F [Perfluorooctanesulfonyl fluoride]; details: 2200 nM; in DMSO
Experimental: as §1

[13] = compound: O=S(=O)(O)C(F)(F)C(F)(F)C(F)(F)C(F)(F)C(F)(F)C(F)(F)C(F)(F)C(F)(F)F [Potassium perfluorooctanesulfonate]; details: 2200 nM; in DMSO
Experimental: as §1

[14] = compound: NC(=O)C(F)(F)C(F)(F)C(F)(F)C(F)F; details: in DMSO
Experimental: as §1

[15] = compound: O=C(O)C(F)(F)C(F)(F)C(F)F [4H-Perfluorobutanoic acid]; details: in DMSO
Experimental: as §1

Pentafluoropropionamide = compound: NC(=O)C(F)(F)C(F)(F)F [Pentafluoropropionamide]; details: 2200 nM; in DMSO
Experimental: as §1

[16] = compound: OCCCCC(F)(F)C(F)(F)C(F)(F)C(F)(F)F [4:4 Fluorotelomer alcohol]; details: 2200 nM; in DMSO
Experimental: as §1

Heptafluorobutyl iodide = compound: FC(F)(F)C(F)(F)C(F)(F)CI [Heptafluorobutyl iodide]; details: 2200 nM; in DMSO
Experimental: as §1

Test System | level (log10) [1] | level (log10) ([2]; 740 nM) | level (log10) ([2]; 2200 nM) | level (log10) [3] | level (log10) [4] | level (log10) [5] | level (log10) ([6]; 740 nM) | level (log10) ([6]; 2200 nM) | level (log10) ([7]; 740 nM) | level (log10) ([7]; 2200 nM) | level (log10) [8] | level (log10) ([9]; 740 nM) | level (log10) ([9]; 2200 nM) | level (log10) [10] | level (log10) ([11]; 2200 nM) | level (log10) ([11]; 6700 nM) | level (log10) ([11]; 20000 nM) | level (log10) [12] | level (log10) [13] | level (log10) ([14]; 2200 nM) | level (log10) ([14]; 6700 nM) | level (log10) ([14]; 20000 nM) | level (log10) ([14]; 60000 nM) | level (log10) ([15]; 2200 nM) | level (log10) ([15]; 6700 nM) | level (log10) ([15]; 20000 nM) | level (log10) ([15]; 60000 nM) | level (log10) (Pentafluoropropionamide) | level (log10) [16] | level (log10) (Heptafluorobutyl iodide)
BF4T:SRB | -0.0015 ± 0.005 | -0.0025 ± 0.005 | -0.0025 ± 0.0035 | 0 ± 0.013 | 0 ± 0.0042 | 0.005 ± 0.016 | 0.0155 ± 0.0092 | -0.001 ± 0.0071 | -0.002 ± 0.0014 | -0.001 ± 0.0014 | 0.005 ± 0.0057 | -0.002 ± 0.0014 | -0.002 ± 0.0014 | 0.0045 ± 0.015 | 0.0005 ± 0.0078 | -0.009 ± 0.0028 | -0.052 | 0.004 ± 0.018 | -0.0025 ± 0.012 | 0.001 ± 0.011 | -0.0075 ± 0.00071 | -0.0125 ± 0.011 | -0.0025 ± 0.0078 | -0.0065 ± 0.0064 | 0.0005 ± 0.0021 | -0.008 ± 0.0057 | -0.006 ± 0.0042 | -0.004 ± 0.011 | -0.0035 ± 0.0064 | 0.013 ± 0.024
CASM3C:CXCL9/MIG | 0.025 ± 0.065 | 0.005 ± 0.018 | -0.003 ± 0.0057 | 0.036 ± 0.041 | 0.0035 ± 0.04 | 0.0205 ± 0.00071 | 0.017 ± 0.024 | 0.001 ± 0.0042 | 0.028 ± 0.045 | -0.012 ± 0.011 | 0.0055 ± 0.022 | 0.0075 ± 0.0092 | -0.006 ± 0.014 | 0.015 ± 0.014 | 0.034 ± 0.0014 | -0.0005 ± 0.011 | -0.0305 ± 0.022 | 0.002 ± 0.017 | 0.0375 ± 0.08 | 0.005 ± 0.025 | -0.0075 ± 0.021 | -0.0055 ± 0.0035 | 0.0005 ± 0.0078 | 0.02 ± 0.059 | -0.0035 ± 0.028 | 0.0125 ± 0.00071 | 0.032 ± 0.017 | 0.007 ± 0.0042 | 0.037 ± 0.044 | 0.0005 ± 0.03
LPS:IL-1alpha | 0.051 ± 0.13 | 0.021 ± 0.0071 | 0.0175 ± 0.026 | 0.007 ± 0.024 | -0.007 ± 0.028 | -0.033 ± 0.086 | -0.0275 ± 0.063 | 0.0285 ± 0.019 | -0.007 ± 0.0042 | 0.017 ± 0.034 | 0.004 ± 0.0099 | 0.0315 ± 0.028 | 0.025 ± 0.062 | 0.018 ± 0.042 | -0.0065 ± 0.021 | -0.0195 ± 0.025 | -0.013 ± 0.0071 | -0.0025 ± 0.023 | 0.0035 ± 0.035 | 0.0065 ± 0.044 | 0.009 ± 0.011 | -0.0045 ± 0.015 | 0.0015 ± 0.06 | -0.0425 ± 0.0035 | -0.038 ± 0.0071 | -0.02 ± 0.0085 | -0.0065 ± 0.023 | 0.0145 ± 0.0092 | 0.0235 ± 0.037 | 0.0395 ± 0.064
BE3C:HLA-DR | -0.0035 ± 0.044 | 0.002 ± 0.0071 | -0.0075 ± 0.0021 | 0.02 ± 0.027 | -0.0005 ± 0.005 | 0.004 ± 0.016 | -0.003 ± 0.023 | -0.003 ± 0.04 | 0.019 ± 0.037 | -0.0055 ± 0.025 | -0.0075 ± 0.005 | 0.014 ± 0.028 | 0.005 ± 0.017 | 0.0205 ± 0.033 | -0.028 ± 0.014 | -0.0975 ± 0.013 | -0.136 ± 0.011 | -0.008 ± 0.0071 | 0.0125 ± 0.026 | 0.003 ± 0.025 | 0.0065 ± 0.016 | 0.008 ± 0.0057 | -0.0025 ± 0.023 | 0.002 ± 0.014 | -0.023 | -0.022 ± 0.0085 | -0.0005 ± 0.028 | -0.0015 ± 0.012 | 0.006 ± 0.051 | -0.022 ± 0.0014
lMphg:CD40 | 0.004 ± 0.016 | -0.017 ± 0.011 | -0.015 ± 0.0014 | -0.0115 ± 0.005 | 0.008 ± 0.031 | 0.004 | 0.027 ± 0.02 | 0.0045 ± 0.028 | -0.01 ± 0.011 | 0 ± 0.0099 | 0.027 ± 0.044 | -0.012 ± 0.044 | -0.0205 ± 0.029 | -0.034 ± 0.03 | -0.017 ± 0.014 | -0.0365 ± 0.016 | -0.0925 ± 0.0092 | 0.001 ± 0.0042 | -0.009 ± 0.0014 | -0.012 ± 0.016 | -0.026 ± 0.027 | -0.011 ± 0.0071 | -0.017 ± 0.0042 | 0.0145 ± 0.03 | 0.0065 ± 0.028 | -0.0035 ± 0.039 | 0.007 ± 0.024 | -0.0175 ± 0.0035 | -0.04 ± 0.0042 | -0.019 ± 0.017
HDF3CGF:Collagen III | -0.0195 ± 0.05 | 0.011 ± 0.0085 | 0 ± 0.016 | 0.03 ± 0.055 | -0.026 ± 0.082 | 0.0045 ± 0.0078 | 0.016 ± 0.041 | -0.0295 ± 0.15 | -0.013 ± 0.017 | -0.001 ± 0.02 | 0.059 ± 0.041 | 0.003 ± 0.037 | 0.0145 ± 0.013 | 0.0125 ± 0.052 | -0.003 ± 0.052 | -0.0345 ± 0.012 | -0.449 ± 0.019 | 0.0465 ± 0.0064 | -0.021 ± 0.0028 | -0.009 ± 0.014 | -0.011 ± 0.0042 | -0.0155 ± 0.012 | -0.0165 ± 0.00071 | -0.0155 ± 0.019 | -0.005 ± 0.088 | 0.03 ± 0.054 | 0.072 ± 0.042 | 0.0025 ± 0.028 | 0.0055 ± 0.018 | -0.077 ± 0.031
KF3CT:MMP-9 | -0.0035 ± 0.0021 | 0.0085 ± 0.056 | 0.01 ± 0.037 | -0.0125 ± 0.012 | -0.026 ± 0.04 | -0.0165 ± 0.005 | -0.032 ± 0.016 | -0.0145 ± 0.005 | -0.025 ± 0.0099 | -0.0245 ± 0.015 | -0.0305 ± 0.022 | -0.011 ± 0.0042 | -0.0305 ± 0.00071 | 0.0125 ± 0.0035 | 0.0135 ± 0.033 | 0.0365 ± 0.026 | -0.274 ± 0.023 | -0.018 ± 0.024 | 0.0035 ± 0.0092 | 0.003 ± 0.013 | -0.0095 ± 0.013 | 0.002 ± 0.025 | 0.0125 ± 0.023 | -0.0335 ± 0.032 | -0.024 ± 0.055 | -0.0395 ± 0.012 | -0.0775 ± 0.00071 | -0.027 ± 0.023 | 0.002 ± 0.021 | -0.004 ± 0.052
HDF3CGF:CCL2/MCP-1 | 0.0075 ± 0.018 | -0.0105 ± 0.005 | -0.022 ± 0.013 | -0.0325 ± 0.033 | -0.0125 ± 0.044 | -0.007 ± 0.034 | -0.0035 ± 0.005 | 0.024 ± 0.0028 | -0.0135 ± 0.013 | -0.0255 ± 0.026 | -0.0315 ± 0.039 | -0.025 ± 0.025 | -0.018 ± 0.02 | 0.039 ± 0.05 | 0.0145 ± 0.021 | -0.0105 ± 0.0064 | -0.567 ± 0.14 | -0.0025 ± 0.044 | 0.0105 ± 0.018 | 0.0165 ± 0.069 | -0.017 ± 0.054 | -0.004 ± 0.04 | 0.0095 ± 0.028 | 0.0005 ± 0.0021 | -0.0385 ± 0.021 | -0.018 ± 0.051 | 0.049 ± 0.0071 | -0.01 ± 0.0028 | -0.006 | -0.0035 ± 0.013
